Results are given in words; binding and its absence hold for the method and conditions named. In cells and extracts the contact can be indirect. A result given as binding can be weak or reduced; the word gives no strength.
Target: integrin αvβ3 expressed in CHO cells (UniProt P06756)
Test: co-IP; mock or αvβ3 expressing CHO cells, treated or not with blocking anti-αvβ3 antibody, sCD146 added for 1 h at 37°; immunoprecipitation with anti-αvβ3 antibody, blot for CD146; only the binder purified

Chains of the proteins cited; added tags and fusions are not shown. Lines headed by an entry give the natural chain unless they say otherwise; changes in a name come on top.
UniProt P06756: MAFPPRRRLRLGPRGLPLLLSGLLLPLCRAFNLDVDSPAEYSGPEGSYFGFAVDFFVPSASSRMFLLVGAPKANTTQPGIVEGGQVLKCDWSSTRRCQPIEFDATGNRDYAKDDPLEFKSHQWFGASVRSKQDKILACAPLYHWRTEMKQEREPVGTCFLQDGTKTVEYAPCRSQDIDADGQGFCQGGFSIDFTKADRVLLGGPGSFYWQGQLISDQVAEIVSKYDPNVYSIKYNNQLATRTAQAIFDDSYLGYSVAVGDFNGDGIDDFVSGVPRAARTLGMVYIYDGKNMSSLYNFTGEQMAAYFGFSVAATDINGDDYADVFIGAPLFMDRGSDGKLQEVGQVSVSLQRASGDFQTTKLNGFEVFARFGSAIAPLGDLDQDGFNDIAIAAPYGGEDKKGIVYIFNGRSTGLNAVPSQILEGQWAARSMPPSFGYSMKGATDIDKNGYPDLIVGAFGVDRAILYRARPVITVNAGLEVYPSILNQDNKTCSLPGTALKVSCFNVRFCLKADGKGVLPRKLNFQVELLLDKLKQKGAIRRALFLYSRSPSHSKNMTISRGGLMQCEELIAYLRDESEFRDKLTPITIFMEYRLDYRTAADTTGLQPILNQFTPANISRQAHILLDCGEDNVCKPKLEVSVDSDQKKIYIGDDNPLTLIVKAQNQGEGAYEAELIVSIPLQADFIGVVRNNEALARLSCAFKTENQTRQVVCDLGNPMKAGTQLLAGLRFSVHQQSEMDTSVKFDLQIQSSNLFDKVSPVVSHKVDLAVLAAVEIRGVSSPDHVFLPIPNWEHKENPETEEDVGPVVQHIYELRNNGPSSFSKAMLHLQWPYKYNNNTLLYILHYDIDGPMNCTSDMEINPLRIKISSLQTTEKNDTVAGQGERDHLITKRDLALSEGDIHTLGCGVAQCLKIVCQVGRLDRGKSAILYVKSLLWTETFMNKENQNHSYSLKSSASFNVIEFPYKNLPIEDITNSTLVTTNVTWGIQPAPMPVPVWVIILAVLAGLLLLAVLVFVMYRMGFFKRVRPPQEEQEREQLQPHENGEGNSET
UniProt P43121: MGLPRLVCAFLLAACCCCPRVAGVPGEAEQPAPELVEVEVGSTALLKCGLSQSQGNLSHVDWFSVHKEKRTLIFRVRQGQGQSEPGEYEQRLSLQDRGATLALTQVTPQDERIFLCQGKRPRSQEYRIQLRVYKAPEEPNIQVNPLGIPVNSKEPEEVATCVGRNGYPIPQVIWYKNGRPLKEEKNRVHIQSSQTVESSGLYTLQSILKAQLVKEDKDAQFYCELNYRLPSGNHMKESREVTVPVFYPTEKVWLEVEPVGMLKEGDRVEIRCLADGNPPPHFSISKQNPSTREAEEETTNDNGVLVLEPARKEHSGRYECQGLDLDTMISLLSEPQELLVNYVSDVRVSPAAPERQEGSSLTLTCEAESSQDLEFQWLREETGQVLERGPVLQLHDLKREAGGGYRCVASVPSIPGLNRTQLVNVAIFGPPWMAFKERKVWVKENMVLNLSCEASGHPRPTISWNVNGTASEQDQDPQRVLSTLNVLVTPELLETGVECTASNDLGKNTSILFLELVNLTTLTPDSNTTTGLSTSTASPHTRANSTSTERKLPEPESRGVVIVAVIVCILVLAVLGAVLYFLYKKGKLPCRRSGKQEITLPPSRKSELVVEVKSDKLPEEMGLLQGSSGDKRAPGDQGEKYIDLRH

binding: binds
Substance: recombinant soluble CD146 (from UniProt P43121) (ligand)
